± gives the standard deviation of the averaged measurements. Most values lie at the level of the controls, where differences are scatter.
Experiments:
Test in all cases: level (log10 ratio to DMSO vehicle control); higher = higher biomarker level / cell amount than vehicle control
[1] = compound: FC(F)(F)COC(OCC(F)(F)F)OCC(F)(F)F [tris(Trifluoroethoxy)methane] (in DMSO); settings: 2200 nM
Description: (§1)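 BioMAP Diversity Plus panel of 12 human primary cell co-culture systems (3C, 4H, LPS, SAg, BT, BF4T, BE3C, CASM3C, HDF3CGF, KF3CT, MyoF, Mphg). Compounds were added 1 h before stimulation and left for 24 h (MyoF 48 h; BT 72 h for soluble read-outs or 6 d for IgG). Biomarkers were read by ELISA, cytotoxicity by SRB, PBMC viability and proliferation by Alamar Blue. Each well value was divided by the mean of 8 DMSO control wells on the same plate and log10 transformed; duplicate blinded samples were tested at 4 concentrations.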

[2] = compound: OCC(F)(F)OC(F)(F)C(F)(F)OC(F)(F)CO [1H,1H,8H,8H-Perfluoro-3,6-dioxaoctane-1,8-diol] (in DMSO); settings: 2200 nM
Description: as §1

[3] = compound: FC(F)(F)C(F)(F)CNCC(F)(F)C(F)(F)F [Bis(1H,1H-perfluoropropyl)amine] (in DMSO); settings: 2200 nM
Description: as §1

[4] = compound: O=C(O)C(F)(OC(F)(F)C(F)(OC(F)(F)C(F)(OC(F)(F)C(F)(F)C(F)(F)F)C(F)(F)F)C(F)(F)F)C(F)(F)F [Perfluoro-(2,5,8-trimethyl-3,6,9-trioxadodecanoic)acid] (in DMSO); settings: 370 nM
Description: as §1

[5] = compound: C=C(C)C(=O)OCCC(F)(F)C(F)(F)C(F)(F)C(F)(F)C(F)(F)C(F)(F)F [6:2 Fluorotelomer methacrylate] (in DMSO); settings: 2200 nM
Description: as §1

[6] = compound: CNS(=O)(=O)C(F)(F)C(F)(F)C(F)(F)C(F)(F)C(F)(F)C(F)(F)C(F)(F)C(F)(F)F [N-Methylperfluorooctanesulfonamide] (in DMSO); settings: 2200 nM
Description: as §1

[7] = compound: O=C(O)CCC(F)(F)C(F)(F)C(F)(F)F [3:3 Fluorotelomer carboxylic acid] (in DMSO); settings: 2200 nM
Description: as §1

Perfluorohexanoic acid = compound: O=C(O)C(F)(F)C(F)(F)C(F)(F)C(F)(F)C(F)(F)F [Perfluorohexanoic acid] (in DMSO)
Description: as §1

[8] = compound: OCC(F)(F)C(F)(F)C(F)(F)C(F)F [1H,1H,5H-Perfluoropentanol] (in DMSO); settings: 2200 nM
Description: as §1

[9] = compound: OCC(F)(F)C(F)(F)C(F)(F)C(F)(F)C(F)(F)C(F)(F)F [6:1 Fluorotelomer alcohol] (in DMSO); settings: 2200 nM
Description: as §1

[10] = compound: O=S(=O)(O)C(F)(F)C(F)(F)C(F)(F)C(F)(F)F [Perfluorobutanesulfonic acid] (in DMSO)
Description: as §1

[11] = compound: FC(F)(F)C(F)(F)C(F)(F)C(F)(F)CCI [1H,1H,2H,2H-Perfluorohexyl iodide] (in DMSO); settings: 2200 nM
Description: as §1

Hexafluoroglutaric acid = compound: O=C(O)C(F)(F)C(F)(F)C(F)(F)C(=O)O [Hexafluoroglutaric acid] (in DMSO)
Description: as §1

[12] = compound: OCCCC(F)(F)C(F)(F)C(F)(F)C(F)(F)C(F)(F)C(F)(F)C(F)(F)C(F)(F)F [3-(Perfluorooctyl)propanol] (in DMSO); settings: 2200 nM
Description: as §1

[13] = compound: O=C(O)C(F)(F)C(F)(F)C(F)(F)OC(F)(C(F)(F)F)C(F)(F)F [Perfluoro-4-isopropoxybutanoic acid] (in DMSO); settings: 2200 nM
Description: as §1

[14] = compound: O=C(O)C(F)(OC(F)(F)C(F)(F)C(F)(F)F)C(F)(F)F [Ammonium perfluoro-2-methyl-3-oxahexanoate] (in Water)
Description: as §1

[15] = compound: OCC(F)(F)C(F)(F)C(F)(F)C(F)(F)C(F)(F)C(F)(F)CO [1H,1H,8H,8H-Perfluorooctane-1,8-diol] (in DMSO); settings: 2200 nM
Description: as §1

Test System | level (log10) [1] | level (log10) [2] | level (log10) [3] | level (log10) [4] | level (log10) [5] | level (log10) [6] | level (log10) [7] | level (log10) (Perfluorohexanoic acid; 2200 nM) | level (log10) (Perfluorohexanoic acid; 6700 nM) | level (log10) (Perfluorohexanoic acid; 20000 nM) | level (log10) (Perfluorohexanoic acid; 60000 nM) | level (log10) [8] | level (log10) [9] | level (log10) ([10]; 2200 nM) | level (log10) ([10]; 6700 nM) | level (log10) ([10]; 20000 nM) | level (log10) ([10]; 60000 nM) | level (log10) [11] | level (log10) (Hexafluoroglutaric acid; 2200 nM) | level (log10) (Hexafluoroglutaric acid; 6700 nM) | level (log10) (Hexafluoroglutaric acid; 20000 nM) | level (log10) (Hexafluoroglutaric acid; 60000 nM) | level (log10) [12] | level (log10) [13] | level (log10) ([14]; 2200 nM) | level (log10) ([14]; 6700 nM) | level (log10) ([14]; 20000 nM) | level (log10) ([14]; 60000 nM) | level (log10) [15]
lMphg:CCL3/MIP-1alpha | 0.0095 ± 0.005 | 0.031 ± 0.03 | -0.029 ± 0.021 | 0.04 ± 0.02 | 0.0065 ± 0.063 | -0.007 ± 0.024 | 0.023 ± 0.058 | -0.0195 ± 0.029 | 0.006 | -0.009 ± 0.011 | 0.0025 ± 0.011 | 0.0045 ± 0.05 | 0.0085 ± 0.021 | -0.0295 ± 0.0078 | -0.0305 ± 0.016 | -0.0395 ± 0.005 | -0.0135 ± 0.0092 | -0.0235 ± 0.021 | 0.029 ± 0.017 | -0.0025 ± 0.0078 | 0.0125 ± 0.015 | -0.024 ± 0.052 | 0.0005 ± 0.03 | -0.004 ± 0.0057 | -0.0485 ± 0.016 | -0.0685 ± 0.035 | -0.067 ± 0.0014 | -0.0185 ± 0.054 | 0.004 ± 0.057
lMphg:CD40 | -0.0205 ± 0.047 | -0.0395 ± 0.022 | 0.0005 ± 0.0021 | 0.029 ± 0.05 | -0.006 ± 0.0042 | -0.0175 ± 0.015 | -0.076 ± 0.089 | 0.0105 ± 0.052 | 0.0105 ± 0.0078 | 0.016 ± 0.02 | -0.008 ± 0.0028 | 0.007 ± 0.024 | 0.0235 ± 0.0064 | -0.0115 ± 0.0064 | -0.0015 ± 0.0064 | -0.0065 ± 0.0021 | 0.009 ± 0.0014 | -0.0315 ± 0.013 | -0.03 ± 0.037 | -0.0015 ± 0.012 | -0.013 ± 0.0014 | -0.066 ± 0.061 | -0.0165 ± 0.046 | -0.018 ± 0.0042 | -0.0135 ± 0.016 | -0.0295 ± 0.0064 | -0.045 ± 0.0099 | -0.049 ± 0.011 | -0.003 ± 0.037
lMphg:CD62E/E-Selectin | -0.019 ± 0.051 | -0.0205 ± 0.056 | 0.0105 ± 0.012 | -0.009 ± 0.0042 | 0.0165 ± 0.049 | -0.0235 ± 0.03 | 0.0075 ± 0.022 | -0.016 ± 0.0042 | 0.0025 ± 0.016 | 0 ± 0.0014 | -0.014 ± 0.0042 | -0.0025 ± 0.018 | 0.014 ± 0.013 | 0.043 ± 0.011 | 0.0405 ± 0.0035 | 0.041 ± 0.044 | 0.0215 ± 0.046 | -0.0045 ± 0.074 | 0.0285 ± 0.005 | -0.0065 ± 0.026 | 0.001 ± 0.02 | -0.0165 ± 0.043 | -0.025 ± 0.071 | -0.024 ± 0.014 | 0.0245 ± 0.00071 | 0.013 ± 0.0071 | 0.002 ± 0.0071 | 0.0245 ± 0.013 | 0.018 ± 0.064
lMphg:CD69 | 0.0415 ± 0.083 | 0.006 ± 0.03 | 0.0245 ± 0.039 | -0.016 ± 0.0071 | 0.0015 ± 0.053 | -0.003 ± 0.05 | 0.0485 ± 0.086 | -0.026 ± 0.055 | 0.005 ± 0.035 | -0.003 ± 0.0071 | -0.017 ± 0.0042 | -0.0125 ± 0.028 | 0.017 ± 0.033 | 0.0185 ± 0.054 | 0.0035 ± 0.005 | -0.0195 ± 0.005 | -0.0525 ± 0.043 | -0.0035 ± 0.054 | 0.0045 ± 0.012 | -0.037 ± 0.028 | -0.0325 ± 0.0021 | -0.0525 ± 0.015 | 0.025 ± 0.023 | -0.0045 ± 0.042 | 0.0295 ± 0.0035 | -0.0435 ± 0.011 | 0 ± 0.013 | -0.0185 ± 0.015 | 0.009 ± 0.064
lMphg:CD106/VCAM-1 | 0 ± 0.017 | -0.0295 ± 0.025 | -0.011 ± 0.0042 | -0.0065 ± 0.0078 | -0.0165 ± 0.032 | 0.0045 ± 0.0078 | -0.0035 ± 0.005 | -0.0075 ± 0.018 | 0.0065 ± 0.016 | -0.0055 ± 0.011 | 0.0005 ± 0.018 | -0.0065 ± 0.026 | -0.014 ± 0.0014 | -0.0045 ± 0.019 | -0.004 ± 0.025 | -0.013 ± 0.018 | -0.0195 ± 0.0078 | -0.004 ± 0.041 | 0 ± 0.016 | 0.0045 ± 0.011 | -0.005 ± 0.0057 | -0.0255 ± 0.00071 | -0.0005 ± 0.0021 | -0.0075 ± 0.00071 | -0.0195 ± 0.019 | -0.0195 ± 0.0035 | -0.013 ± 0.0028 | -0.0085 ± 0.0035 | -0.0115 ± 0.036
lMphg:CXCL8/IL-8 | 0.005 ± 0.083 | 0.012 ± 0.0042 | 0.0015 ± 0.032 | 0.0215 ± 0.025 | 0.0345 ± 0.044 | 0.0135 ± 0.081 | 0.015 ± 0.013 | 0.0215 ± 0.029 | 0.045 ± 0.024 | 0.0515 ± 0.036 | 0.074 ± 0.023 | 0.0075 ± 0.021 | 0.0485 ± 0.011 | 0.0225 ± 0.035 | 0.022 ± 0.0028 | 0.06 ± 0.0085 | 0.183 ± 0.0099 | -0.022 ± 0.048 | 0.044 ± 0.052 | 0.014 ± 0.0042 | 0.044 ± 0.072 | -0.0185 ± 0.0021 | 0.0085 ± 0.05 | -0.0195 ± 0.08 | 0.138 ± 0.04 | 0.137 ± 0.0021 | 0.194 ± 0.0078 | 0.261 ± 0.025 | -0.0025 ± 0.015
lMphg:IL-1alpha | 0.0175 ± 0.035 | -0.0625 ± 0.17 | -0.027 ± 0.047 | -0.0055 ± 0.028 | 0.012 ± 0.034 | -0.0075 ± 0.032 | 0.028 ± 0.073 | 0.0085 ± 0.021 | 0.0035 ± 0.04 | 0 ± 0.011 | -0.009 ± 0.033 | -0.0445 ± 0.033 | 0.0095 ± 0.036 | 0.036 ± 0.028 | 0.0315 ± 0.016 | -0.0055 ± 0.056 | 0.034 ± 0.031 | -0.0185 ± 0.0035 | 0.0045 ± 0.005 | -0.004 ± 0.0057 | -0.0095 ± 0.023 | -0.022 ± 0.031 | 0.0235 ± 0.1 | 0.019 ± 0.021 | 0.0725 ± 0.084 | 0.0825 ± 0.059 | 0.079 ± 0.055 | 0.11 ± 0.021 | 0.0095 ± 0.14
lMphg:M-CSF | -0.006 ± 0.0014 | 0.0085 ± 0.025 | -0.003 ± 0.028 | 0.0265 ± 0.052 | 0.016 ± 0.011 | 0.0055 ± 0.025 | -0.0025 ± 0.042 | 0.0075 ± 0.022 | 0.0005 ± 0.028 | -0.011 ± 0.028 | -0.023 ± 0.0014 | -0.0205 ± 0.00071 | -0.0215 ± 0.059 | 0.0295 ± 0.032 | 0.021 ± 0.028 | -0.0045 ± 0.074 | -0.0045 ± 0.07 | -0.008 ± 0.0057 | -0.0285 ± 0.044 | -0.028 ± 0.014 | -0.017 ± 0.0042 | -0.0175 ± 0.019 | 0.0155 ± 0.047 | 0.01 ± 0.033 | -0.0885 ± 0.013 | -0.084 ± 0.021 | -0.0725 ± 0.00071 | -0.0815 ± 0.011 | 0.012 ± 0.04

Limited to level (log10) [1] (two entries from above):
Test System	level (log10) [1]
lMphg:CCL3/MIP-1alpha	0.0095 ± 0.005
lMphg:CD69	0.0415 ± 0.083
